The record followed here is PMC10058238, “Mechanism of sphingolipid homeostasis revealed by structural analysis of Arabidopsis SPT-ORM1 complex” (Science Advances, 2023).

Amino acid sequences for entries named in this document (tags omitted). A change or cut given only in a name is not applied to a line headed by its entry.
UniProt A8MSB8: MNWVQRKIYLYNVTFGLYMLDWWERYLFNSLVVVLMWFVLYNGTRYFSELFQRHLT

These are yes or no findings as the source states them, for the method shown. Binding calls can cover weak binding; strength is not graded here. For some assays here: In cells and extracts the contact can be indirect.

Assay [1] concerns the target Flag-tagged Arabidopsis SPTssa (Arabidopsis) (UniProt A8MSB8). Put plainly: co-purification (anti-Flag affinity resin, then size exclusion chromatography); subunits coexpressed in HEK293F; membranes solubilised with 1% GDN; captured by the N-terminal Flag tag of SPTssa, eluted with Flag peptide, Superose 6 in 25 mM Hepes pH 7.5, 150 mM NaCl, 0.01% GDN. (In general: SEC sorts molecules by how far they enter the pores of the column.)

Assay [2] shares this target. Put plainly: cryo-EM structure; single-particle cryo-EM of the coexpressed, purified complexes (WT, ORM1-N17A, LCB2a-ΔN5) at ~18 mg/ml in 25 mM Hepes pH 7.5, 150 mM NaCl, 0.01% GDN; the LCB2a-ΔN5 sample preincubated with 0.5 mM PLP, 10 mM L-serine and 1 mM S-CoA; both purified.

B1: Arabidopsis LCB1 (protein, UniProt Q94IB8 1-482)
chain: MASNLVEMFNAALNWVTMILESPSARVVLFGVPIRGHFFVEGLLGVVIIILLTRKSYKPPKRPLTEQEIDELCDEWVPEPLIPPITEDMKHEPPVLESAAGPHTTVNGKDVVNFASANYLGLIGHEKLLESCTSALEKYGVGSCGPRGFYGTIDVHLDCETRISKFLGTPDSILYSYGLSTMFSTIPCFCKKGDVIVADEGVHWGIQNGLQLSRSTIVYFKHNDMESLRITLEKIMTKYKRSKNLRRYIVAEAVYQNSGQIAPLDEIVKLKEKYRFRVILDESNSFGVLGRSGRGLAEHHSVPIEKIDVVTAAMGHALATEGGFCTGNARIIDYQRLSSSGYVFSASLPPYLASAAITAIDVIDQNPDMLVKLKQNVALLWKGLSDIKGMSLTSNRESPIVFLKLEKSSGSAKDDLLLLEKMADRALKEDSLLVVSSKRSFLDKCRLPVGIKLYVSAGHSESDLLKASESLKRLASELLLKS
For the molecule B1, the binding entry in assay [1] is on record as “binds”.

B2: Arabidopsis LCB2a-ΔN5 (protein, UniProt Q9LSZ9)
chain: MYLTAVSTYFSYGLLFAFGQLRDFFRRFIDWWFTSNLQGYAPICLGHEDFYIRRLYHRIQDCFERPISSAPDAWFDVVERYSNDNNKTLKRTTKTSRCLNLGSYNYLGFGSFDEYCTPRVIESLKKFSASTCSSRVDAGTTSVHAELEECVTRFVGKPAAVVFGMGYATNSAIIPVLIGKGGLIISDSLNHSSIVNGARGSGATIRVFQHNTPSHLERVLREQIAEGQPRTHRPWKKIIVVVEGIYSMEGEICHLPEVVAICKKYKAYVYLDEAHSIGAIGKTGKGICELLGVDTADVDVMMGTFTKSFGSCGGYIAGSKELIQYLKHQCPAHLYATSIPTPSAQQIISAIKVILGEDGSNRGAQKLARIRENSNFFRAELQKMGFEVLGDNDSPVMPIMLYNPAKIPAFSRECLRQKVAVVVVGFPATPLLLARARICISASHSREDLIRALKVISKVGDLSGIKYFPAEPKKIEQSKNDIKLD
As for B2, the binding entry in assay [2] is “binds”.
